{
  "sequences": {"note": "By UniProt entry, the sequences of proteins in these tests, tags left out.", "UniProt Q0JBA9, entry or part of it": "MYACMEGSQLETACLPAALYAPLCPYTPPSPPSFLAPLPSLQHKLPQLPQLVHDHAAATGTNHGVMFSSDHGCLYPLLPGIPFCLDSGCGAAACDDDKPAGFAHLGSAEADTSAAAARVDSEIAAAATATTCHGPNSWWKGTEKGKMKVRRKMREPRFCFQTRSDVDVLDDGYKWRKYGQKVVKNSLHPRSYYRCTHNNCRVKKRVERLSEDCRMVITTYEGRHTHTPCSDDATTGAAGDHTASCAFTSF"},
  "source": "paper PMC7819943",
  "about": "“Rice protein-binding microarrays: a tool to detect cis-acting elements near promoter regions in rice”",
  "note": "The other results are listed elsewhere or left out.",
  "data": [
    {"molecular_target": "OsWRKY34 (Oryza sativa, UniProt Q0JBA9 1-250)", "test": "protein-binding microarray (RPBM); PBS, 2% BSA, 51.3 ng/ul salmon testes DNA, 50 uM zinc acetate, 200 nM TF, 25 C, 1 h; high values mean tight binding", "conditions": "protein: recombinant; tags: N-terminal polyhistidine and DsRed monomer fusion (pET32a); label: CyDye5-dUTP incorporated in the synthesized complementary strand; 3' TTTTT single-stranded linker to array surface; dsDNA, one strand shown", "in_short": "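A custom Agilent array was converted to double-stranded form by primer extension with Cy5-dUTP and blocked with 2% BSA. Protein at 200 nM in PBS with 2% BSA, salmon testes DNA and 50 µM zinc acetate was applied for 1 h at 25 °C, followed by washing. The proteins were polyhistidine–DsRed N-terminal fusions of transcription factors, expressed in E. coli BL21-CodonPlus and Ni–NTA-purified. The binding signal is per-feature fluorescence intensity (arbitrary units) from an Axon 4000B scanner.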", "values": [
      {"sequence": "AGCGCAACCATGACTTTTCCTGTTCAACTTTAATCATTCACGGAGTCACCTAGTGCAG", "binding signal": "8120 fluorescence intensity (a.u.)"},
      {"sequence": "CTATCATCTAGTCCATGCTTCCACTATATAATTTCAATTCCGGAGTCACCTAGTGCAG", "binding signal": "9120 fluorescence intensity (a.u.)"},
      {"sequence": "AGCACAGCTCAGGTCCTAGCATCTCTTCACATGGCCAACACGGAGTCACCTAGTGCAG", "binding signal": "8850 fluorescence intensity (a.u.)"},
      {"sequence": "GTTCCTTTCTTGCGGACCAATTCCGACTGCCGACGAGCGACGGAGTCACCTAGTGCAG", "binding signal": "9410 fluorescence intensity (a.u.)"},
      {"sequence": "GGTTGCCGTGCTTGGGGATGGGGAGGGTGAAATCACGTGCCGGAGTCACCTAGTGCAG", "binding signal": "13400 fluorescence intensity (a.u.)"},
      {"sequence": "TTTTCACTGGTTGCTTCTTGAAAGTATTTGTCGAGTAGTACGGAGTCACCTAGTGCAG", "binding signal": "8070 fluorescence intensity (a.u.)"},
      {"sequence": "TCTTGATTCAAAGGAGCACATCATCTCAGTACTACTCATCCGGAGTCACCTAGTGCAG", "binding signal": "8200 fluorescence intensity (a.u.)"},
      {"sequence": "CCTTTGTTTATACCTAATTACTAGAATTACTGTCGTGCACCGGAGTCACCTAGTGCAG", "binding signal": "8990 fluorescence intensity (a.u.)"},
      {"sequence": "TAACACTTTTCTAATTTATTGACACCGTATTCTTTCTGTTCGGAGTCACCTAGTGCAG", "binding signal": "8860 fluorescence intensity (a.u.)"},
      {"sequence": "TCTCTTCCTTCTCACCGATCCTGGAATGGTCTCGGAGGGTCGGAGTCACCTAGTGCAG", "binding signal": "8400 fluorescence intensity (a.u.)"},
      {"sequence": "ACACGCTACTAATTGTCAGCTTGCCTGTTACGGAGTACATCGGAGTCACCTAGTGCAG", "binding signal": "8100 fluorescence intensity (a.u.)"},
      {"sequence": "ATACCCGGTCCTACCTGTCATATATATATTACGTCTTAGACGGAGTCACCTAGTGCAG", "binding signal": "8410 fluorescence intensity (a.u.)"},
      {"sequence": "CTAATAACTTTCTTGTTTTGCGTACCCACTTAATCTTATTCGGAGTCACCTAGTGCAG", "binding signal": "10400 fluorescence intensity (a.u.)"},
      {"sequence": "GTCTTGGCGTATGTTGGCTTATATGTTGATCTTGTGTCTTCGGAGTCACCTAGTGCAG", "binding signal": "12300 fluorescence intensity (a.u.)"},
      {"sequence": "CCTTCTTCTTTATTGTTTATCCGCAACGTTGCCAAATCCTCGGAGTCACCTAGTGCAG", "binding signal": "8840 fluorescence intensity (a.u.)"},
      {"sequence": "TTGCTCTGTAGCAGCAATGGAGGGAGGAGGGTGGGTGGTGCGGAGTCACCTAGTGCAG", "binding signal": "11200 fluorescence intensity (a.u.)"},
      {"sequence": "GTCACCGCCCTCCGTTTCAGCGCCGGCCTTTGTCCGCACGCGGAGTCACCTAGTGCAG", "binding signal": "11800 fluorescence intensity (a.u.)"},
      {"sequence": "TTTTTTCCTTTTTCTTTTTCTTTTTTTTCATTTTTTTTAACGGAGTCACCTAGTGCAG", "binding signal": "13000 fluorescence intensity (a.u.)"},
      {"sequence": "CGATCTCATGGAAGCACGCCGCCGATCTGCTCATCGCATCCGGAGTCACCTAGTGCAG", "binding signal": "9100 fluorescence intensity (a.u.)"},
      {"sequence": "CTGTGCACACACGCTACGTCGTCCCGTGCGCATGTATCTCCGGAGTCACCTAGTGCAG", "binding signal": "8160 fluorescence intensity (a.u.)"},
      {"sequence": "GATAGTTCATGTTCATTCTCACTCGCTGTACTCTTAAGTACGGAGTCACCTAGTGCAG", "binding signal": "11400 fluorescence intensity (a.u.)"},
      {"sequence": "GGGTTTCCTTGAGGGTAGTTTGGGCATTATGATTTTTAATCGGAGTCACCTAGTGCAG", "binding signal": "15300 fluorescence intensity (a.u.)"},
      {"sequence": "CCACACTCCCACCACCACCACCCTCGCCGCAAAAAGGCAACGGAGTCACCTAGTGCAG", "binding signal": "8140 fluorescence intensity (a.u.)"},
      {"sequence": "TTTCTTCAGCCCCATTTGGCCATTTCATCTTCTCTCCTCTCGGAGTCACCTAGTGCAG", "binding signal": "9390 fluorescence intensity (a.u.)"},
      {"sequence": "TAAACTTTAAATTTTTCCGTCACATCATTTTAATTTCAACCGGAGTCACCTAGTGCAG", "binding signal": "8460 fluorescence intensity (a.u.)"},
      {"sequence": "TAAAAACGTGCATTCCAAATCTTTTACGCATGCTTATCATCGGAGTCACCTAGTGCAG", "binding signal": "8170 fluorescence intensity (a.u.)"},
      {"sequence": "AGTTGTATTGATGGATAGGTTGGTGAGGGGTATTAAATGGCGGAGTCACCTAGTGCAG", "binding signal": "8070 fluorescence intensity (a.u.)"},
      {"sequence": "CGGTTGATCGTCTGACGTATCCTTATCCTGTTGCTTGTCTCGGAGTCACCTAGTGCAG", "binding signal": "9960 fluorescence intensity (a.u.)"},
      {"sequence": "CTTTCAGTTTGACCACTTACTACCTTAGGTACTTTTTTGTCGGAGTCACCTAGTGCAG", "binding signal": "8040 fluorescence intensity (a.u.)"},
      {"sequence": "TTCAAATCTCTAGGACGATTCTAACTTTTCCTTGTTTTCCCGGAGTCACCTAGTGCAG", "binding signal": "8680 fluorescence intensity (a.u.)"},
      {"sequence": "CGCCCGCGGTATTTATTTTTTATTTTATTATTATTTTAATCGGAGTCACCTAGTGCAG", "binding signal": "9750 fluorescence intensity (a.u.)"},
      {"sequence": "CACCTATGATTTTGTTAGTTTTTATACATGCCAATTATATCGGAGTCACCTAGTGCAG", "binding signal": "8740 fluorescence intensity (a.u.)"},
      {"sequence": "ATACGTGATCACGCCATGCATATGCGTTCGGTTGTCCGCGCGGAGTCACCTAGTGCAG", "binding signal": "9450 fluorescence intensity (a.u.)"},
      {"sequence": "GGAGGGAGGTGTTGGATGTTAGCAGTAATCTTGTGTGCCACGGAGTCACCTAGTGCAG", "binding signal": "9140 fluorescence intensity (a.u.)"},
      {"sequence": "CCTCCGCTTCCCTCTTCTCACGTCATGATAGCCGCCGAGGCGGAGTCACCTAGTGCAG", "binding signal": "8740 fluorescence intensity (a.u.)"},
      {"sequence": "AGGCTATTTACCACTCCCTGCCACTGCAGCACACCGACACCGGAGTCACCTAGTGCAG", "binding signal": "9280 fluorescence intensity (a.u.)"},
      {"sequence": "GTCACTTTCTTTTGTCGATTGACAGAGTCTCGTGCAATTGCGGAGTCACCTAGTGCAG", "binding signal": "8520 fluorescence intensity (a.u.)"},
      {"sequence": "CGGCCTCCACTCCCGTCTCCCCGCGACTTCGCCCGCCGCGCGGAGTCACCTAGTGCAG", "binding signal": "8180 fluorescence intensity (a.u.)"},
      {"sequence": "TTCATCTGCTTCGTCCTCAGATCCGATCTCTCTTCTCATTCGGAGTCACCTAGTGCAG", "binding signal": "11600 fluorescence intensity (a.u.)"},
      {"sequence": "AGTGGAGGGAGATAATCACAGTAGTACCAAATTCTCTAAGCGGAGTCACCTAGTGCAG", "binding signal": "8100 fluorescence intensity (a.u.)"},
      {"sequence": "CTTTTGTTGATTCTTGTCCATGATCCCAAGTCATCACTTTCGGAGTCACCTAGTGCAG", "binding signal": "8780 fluorescence intensity (a.u.)"},
      {"sequence": "CTTTGCTCACTCTTTCTTTTCTCTTCAGGTCTCCATTCTTCGGAGTCACCTAGTGCAG", "binding signal": "12200 fluorescence intensity (a.u.)"}
    ]}
  ]
}
